Measurements reported in PubChem BioAssay AID504793 (Drosophila RNAi Screening Center, 2011).

- Aim: 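Knock-downs allowing continued mitosis even though DNA is damaged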 (primary screen)
- Cells: Drosophila S2R+ cells
- Knock-down reagent: long dsRNA against Drosophila genes, about 0.25 µg dsRNA per well
- Timing: 4 days of dsRNA, then 4 hours of drug before read-out
- Challenge: doxorubicin 0.5 µM for 4 hours to cause double-strand breaks, in cells also given a low, harmless dose of dsRNA against nbs to sensitise the assay
- Measured: 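Mitotic index as the number of phospho-histone H3-positive cells in each well following doxorubicin, given as raw counts without normalisation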
- Scale: mitotic cells: higher = more cells in mitosis, weaker G2 arrest
- Active means: 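a call needs confirmation in secondary tests, with other dsRNAs and a check of mitotic timing without damage, not just a high primary count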
- Calls: active = confirmed in follow-up tests; inactive = not confirmed
The deposit covers about 23,000 reagents; shown is a random part of those with a known target gene and a result. Over the whole deposit, 62 (0.27%) got an active call. 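Calls come from follow-up tests whose scores are not deposited, so confirmed genes may have low counts here; counts are not normalised per plate.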 Raw values are not corrected between plates. A plus sign joins genes that one reagent is predicted to hit. Reagent sequences are not shown.

The first 5 records, to show the layout:
| gene knocked down | DRSC id | mitotic cells, replicate 1 | call |
| --- | --- | --- | --- |
| CR31822 (pseudo) | DRSC01510 | 5 | inactive |
| CG17738 | DRSC15257 | 4 | inactive |
| CG17738 | DRSC28474 | 5 | inactive |
| Trc8 (TRC8 ring finger protein) | DRSC15437 | 6 | inactive |
| Trc8 (TRC8 ring finger protein) | DRSC28575 | 9 | inactive |

Main list, from the first entry:
| gene knocked down | DRSC id | mitotic cells, replicate 1 | call |
| --- | --- | --- | --- |
| CR31822 (pseudo) | DRSC01510 | 5 | inactive |
| CG17738 | DRSC15257 | 4 | inactive |
| CG17738 | DRSC28474 | 5 | inactive |
| Trc8 (TRC8 ring finger protein) | DRSC15437 | 6 | inactive |
| Trc8 (TRC8 ring finger protein) | DRSC28575 | 9 | inactive |
| Lztr1 (Leucine zipper like transcription regulator 1) | DRSC18176 | 20 | inactive |
| Lztr1 (Leucine zipper like transcription regulator 1) | DRSC18647 | 21 | inactive |
| Lztr1 (Leucine zipper like transcription regulator 1) | DRSC26706 | 16 | inactive |
| CG42365 | DRSC04266 | 7 | inactive |
| nord | DRSC04210 | 10 | inactive |
| nord | DRSC04361 | 3 | inactive |
| CG14760 | DRSC06495 | 2 | inactive |
| CG14760 | DRSC23957 | 11 | inactive |
| Frq2 (Frequenin 2) | DRSC20245 | 11 | inactive |
| Frq2 (Frequenin 2) | DRSC26037 | 8 | inactive |
| CG13558 | DRSC04196 | 3 | inactive |
| CG13558 | DRSC27617 | 3 | inactive |
| Vha68-1 (Vacuolar H[+] ATPase 68kD subunit 1) | DRSC03470 | 9 | inactive |
| CG10550 | DRSC14251 | 3 | inactive |
| CG4017 | DRSC02733 | 3 | inactive |
| Hmt4-20 (Histone methyltransferase 4-20) | DRSC18482 | 4 | inactive |
| Hmt4-20 (Histone methyltransferase 4-20) | DRSC23921 | 7 | inactive |
| Gr94a (Gustatory receptor 94a) | DRSC13597 | 11 | inactive |
| CG13581 | DRSC04216 | 7 | inactive |
| Cog1 (Component of oligomeric golgi complex 1) | DRSC15661 | 4 | inactive |
| CG31343 | DRSC15887 | 4 | inactive |
| FoxK (Forkhead box K) | DRSC24971 | 14 | inactive |
| CG14488 | DRSC06460 | 6 | inactive |
| Six4 | DRSC11881 | 1 | inactive |
| Six4 | DRSC29889 | 5 | inactive |
| inc (insomniac) | DRSC17954 | 7 | inactive |
| inc (insomniac) | DRSC18512 | 11 | inactive |
| inc (insomniac) | DRSC28898 | 3 | inactive |
| spict (spichthyin) | DRSC02157 | 6 | inactive |
| spict (spichthyin) | DRSC28072 | 6 | inactive |
| CG7299 | DRSC03043 | 7 | inactive |
| CG7299 | DRSC25553 | 6 | inactive |
| CG11997 | DRSC14464 | 7 | inactive |
| CG11997 | DRSC26460 | 8 | inactive |
| CG14120 | DRSC10124 | 3 | inactive |
| CG14120 | DRSC27955 | 7 | inactive |
| Ada2a (transcriptional Adaptor 2a) | DRSC16206 | 14 | inactive |
| Ada2a (transcriptional Adaptor 2a) | DRSC21598 | 35 | active |
| CG3713 | DRSC18648 | 12 | inactive |
| CG2961 | DRSC18246 | 7 | inactive |
| CG2961 | DRSC28539 | 6 | inactive |
| CG6733 | DRSC16103 | 12 | inactive |
| yem (yemanuclein) | DRSC14865 | 18 | inactive |
| yem (yemanuclein) | DRSC17097 | 11 | inactive |
| CG1024 | DRSC12496 | 3 | inactive |
| smash (smallish) | DRSC12139 | 4 | inactive |
| smash (smallish) | DRSC12239 | 11 | inactive |
| DIP-eta (Dpr-interacting protein eta) | DRSC02342 | 9 | inactive |
| CG8067 | DRSC07065 | 2 | inactive |
| CG11309 | DRSC11650 | 2 | inactive |
| CG11309 | DRSC28126 | 8 | inactive |
| Cyt-b5-r (Cytochrome b5-related) | DRSC03308 | 2 | inactive |
| CG13051 | DRSC09932 | 7 | inactive |
| CG10877 | DRSC14274 | 8 | inactive |
| CG31041 | DRSC13951 | 10 | inactive |
| Nha1 (Na[+]/H[+] hydrogen antiporter 1) | DRSC02109 | 3 | inactive |
| EAChm (Enhancer of Acetyltransferase Chameau) | DRSC10010 | 4 | inactive |
| CG31050 | DRSC13883 | 13 | inactive |
| CG13358 | DRSC18534 | 7 | inactive |
| CG13358 | DRSC23742 | 4 | inactive |
| hrg (hiiragi) | DRSC07502 | 9 | inactive |
| RpL34b (Ribosomal protein L34b) | DRSC16475 | 5 | inactive |
| CG30122 | DRSC06935 | 5 | inactive |
| Amy-d + Amy-p | DRSC21242 | 7 | inactive |
| Amy-d + Amy-p | DRSC24129 | 6 | inactive |
| Cdc45 (Cell division cycle 45) | DRSC17747 | 19 | active |
| Cdc45 (Cell division cycle 45) | DRSC18164 | 7 | inactive |
| CG17186 | DRSC15180 | 7 | inactive |
| CG17186 | DRSC27612 | 17 | inactive |
| CG15093 | DRSC06522 | 7 | inactive |
| CG15093 | DRSC24576 | 4 | inactive |
| CG33308 | DRSC01419 | 2 | inactive |
| sug (sugarbabe) | DRSC06855 | 7 | inactive |
| sug (sugarbabe) | DRSC29599 | 3 | inactive |
| CG13428 | DRSC06390 | 5 | inactive |
| Cwc25 | DRSC26038 | 5 | inactive |
| CG31157 | DRSC21832 | 12 | inactive |
| CG31157 | DRSC29159 | 4 | inactive |
| CG12780 | DRSC06169 | 6 | inactive |
| Cyp6a22 (Cytochrome P450 6a22) | DRSC07382 | 7 | inactive |
| Cyp6a22 (Cytochrome P450 6a22) | DRSC24011 | 4 | inactive |
| Mtap (Methylthioadenosine phosphorylase) | DRSC06890 | 2 | inactive |
| ssp (sunspot) | DRSC10252 | 10 | inactive |
| CG42568 + DnaJ-60 | DRSC04207 | 2 | inactive |
| CG42568 + DnaJ-60 | DRSC04611 | 8 | inactive |
| CG42568 + DnaJ-60 | DRSC27072 | – | inactive |
| RpL4 (Ribosomal protein L4) | DRSC16833 | 7 | inactive |
| RpL4 (Ribosomal protein L4) | DRSC25032 | 10 | inactive |
| CG42266 | DRSC21577 | 9 | inactive |
| CG42266 | DRSC21957 | 14 | inactive |
| CG42266 | DRSC29782 | 4 | inactive |
| Dolk (Dolichol kinase) | DRSC07143 | 4 | inactive |
| CG9399 | DRSC16488 | 5 | inactive |
| CG15366 (retired record) | DRSC18039 | 9 | inactive |
| Cftr (CF transmembrane conductance regulator) | DRSC15872 | 6 | inactive |
| Cftr (CF transmembrane conductance regulator) | DRSC24655 | 5 | inactive |
| CG10348 | DRSC23233 | 8 | inactive |
| CG10348 | DRSC30046 | 10 | inactive |
| CG10336 | DRSC02037 | 6 | inactive |
| Eaat2 (Excitatory amino acid transporter 2) | DRSC00032 | 13 | inactive |
| Eaat2 (Excitatory amino acid transporter 2) | DRSC00749 | 4 | inactive |
| Eaat2 (Excitatory amino acid transporter 2) | DRSC26070 | 11 | inactive |
| PTPMT1 (Protein tyrosine phosphatase, mitochondrial 1) | DRSC14235 | 7 | inactive |
| CG5895 | DRSC10554 | 6 | inactive |
| Gcat (Glycine C-acetyltransferase) | DRSC09719 | 4 | inactive |
| Gcat (Glycine C-acetyltransferase) | DRSC26093 | 11 | inactive |
| CG12746 | DRSC12218 | 5 | inactive |
| scf (supercoiling factor) | DRSC08735 | 6 | inactive |
| CG7966 | DRSC16356 | 7 | inactive |
| CG12691 | DRSC17880 | 10 | inactive |
| msps (mini spindles) | DRSC17004 | 9 | inactive |
| fiz (fezzik) | DRSC20188 | 6 | inactive |
| snoRNA:U31:54Ec + snoRNA:snR38:54Eb + snoRNA:U27:54Eb + 8 more | DRSC06458 | 6 | inactive |
| CG17260 | DRSC00497 | 5 | inactive |
| CG17260 | DRSC29415 | 2 | inactive |
| CG10226 | DRSC09715 | 11 | inactive |
| bug (bunker gear) | DRSC07137 | 7 | inactive |
| CG31055 | DRSC13832 | 5 | inactive |
| aqrs (aquarius) | DRSC14724 | 8 | inactive |
| PIP82 | DRSC18694 | 19 | inactive |
| PIP82 | DRSC25335 | 3 | inactive |
| CG5023 | DRSC15697 | 10 | inactive |
| RhoL (Rho-like) | DRSC16824 | 6 | inactive |
| RhoL (Rho-like) | DRSC23664 | 3 | inactive |
| CG9132 | DRSC20159 | 4 | inactive |
| bin3 (bicoid-interacting protein 3) | DRSC04919 | 10 | inactive |
| CG4364 | DRSC02742 | 5 | inactive |
| CG4364 | DRSC29531 | 1 | inactive |
| NdufA3 (NADH:ubiquinone oxidoreductase subunit A3) | DRSC18431 | 16 | inactive |
| CG34448 | DRSC26596 | 5 | inactive |
| CG5612 | DRSC15844 | 8 | inactive |
| Srpk79D (Serine-arginine protein kinase at 79D) | DRSC11668 | 6 | inactive |
| Srpk79D (Serine-arginine protein kinase at 79D) | DRSC11856 | 4 | inactive |
| Srpk79D (Serine-arginine protein kinase at 79D) | DRSC29962 | 5 | inactive |
| CG15385 | DRSC00399 | 5 | inactive |
